# Measurements as given in PubChem BioAssay (EPA / NIEHS).
# Chains of the proteins cited; added tags and fusions are not shown. Lines headed by an entry give the natural chain unless they say otherwise; changes in a name come on top.
# UniProt O75469: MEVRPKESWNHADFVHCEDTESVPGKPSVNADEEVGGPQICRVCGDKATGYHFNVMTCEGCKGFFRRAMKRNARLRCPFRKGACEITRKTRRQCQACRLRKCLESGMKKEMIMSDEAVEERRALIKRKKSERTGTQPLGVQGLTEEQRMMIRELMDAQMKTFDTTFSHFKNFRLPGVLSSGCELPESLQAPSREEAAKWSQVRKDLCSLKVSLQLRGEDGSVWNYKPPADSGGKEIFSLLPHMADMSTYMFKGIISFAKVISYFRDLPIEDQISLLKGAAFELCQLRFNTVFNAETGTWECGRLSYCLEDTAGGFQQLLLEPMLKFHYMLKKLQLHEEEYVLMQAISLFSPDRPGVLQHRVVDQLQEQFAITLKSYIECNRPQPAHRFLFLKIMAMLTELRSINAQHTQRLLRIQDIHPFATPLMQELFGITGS
# UniProt P19793: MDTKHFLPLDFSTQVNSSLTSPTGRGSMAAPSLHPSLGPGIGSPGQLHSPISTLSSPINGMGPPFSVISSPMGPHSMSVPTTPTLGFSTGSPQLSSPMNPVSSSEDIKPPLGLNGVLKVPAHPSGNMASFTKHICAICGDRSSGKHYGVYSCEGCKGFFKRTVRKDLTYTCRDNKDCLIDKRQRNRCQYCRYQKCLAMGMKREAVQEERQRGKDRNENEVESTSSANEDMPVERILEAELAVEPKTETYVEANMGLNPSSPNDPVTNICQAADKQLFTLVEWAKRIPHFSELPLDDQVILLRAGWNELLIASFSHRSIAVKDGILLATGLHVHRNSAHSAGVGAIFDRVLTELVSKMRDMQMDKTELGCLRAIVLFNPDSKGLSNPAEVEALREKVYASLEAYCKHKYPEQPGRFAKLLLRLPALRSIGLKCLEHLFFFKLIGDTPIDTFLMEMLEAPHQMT
# UniProt P04637, whole entry, looked up: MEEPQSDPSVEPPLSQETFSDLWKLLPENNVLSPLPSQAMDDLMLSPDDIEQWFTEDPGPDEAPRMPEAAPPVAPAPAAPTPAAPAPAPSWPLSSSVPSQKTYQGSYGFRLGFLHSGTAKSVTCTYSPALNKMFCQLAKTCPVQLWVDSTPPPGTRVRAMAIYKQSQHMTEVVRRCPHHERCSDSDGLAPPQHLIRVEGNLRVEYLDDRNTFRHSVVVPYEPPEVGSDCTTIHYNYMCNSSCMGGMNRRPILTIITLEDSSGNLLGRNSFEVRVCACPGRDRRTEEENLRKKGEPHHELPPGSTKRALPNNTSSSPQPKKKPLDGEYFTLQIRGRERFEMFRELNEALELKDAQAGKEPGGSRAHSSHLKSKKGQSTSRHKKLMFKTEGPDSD
# UniProt Q03181: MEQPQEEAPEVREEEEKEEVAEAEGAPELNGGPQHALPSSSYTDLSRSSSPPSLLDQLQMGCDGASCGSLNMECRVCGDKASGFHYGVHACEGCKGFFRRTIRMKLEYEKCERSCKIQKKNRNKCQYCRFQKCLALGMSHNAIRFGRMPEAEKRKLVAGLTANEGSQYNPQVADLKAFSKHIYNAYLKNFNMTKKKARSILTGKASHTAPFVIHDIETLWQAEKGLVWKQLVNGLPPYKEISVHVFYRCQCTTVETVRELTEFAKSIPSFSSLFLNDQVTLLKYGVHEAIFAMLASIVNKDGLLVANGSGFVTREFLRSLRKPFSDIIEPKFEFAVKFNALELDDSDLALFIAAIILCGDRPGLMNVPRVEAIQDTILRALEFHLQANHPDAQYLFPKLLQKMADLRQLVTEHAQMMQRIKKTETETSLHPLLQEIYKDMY
# UniProt P11473: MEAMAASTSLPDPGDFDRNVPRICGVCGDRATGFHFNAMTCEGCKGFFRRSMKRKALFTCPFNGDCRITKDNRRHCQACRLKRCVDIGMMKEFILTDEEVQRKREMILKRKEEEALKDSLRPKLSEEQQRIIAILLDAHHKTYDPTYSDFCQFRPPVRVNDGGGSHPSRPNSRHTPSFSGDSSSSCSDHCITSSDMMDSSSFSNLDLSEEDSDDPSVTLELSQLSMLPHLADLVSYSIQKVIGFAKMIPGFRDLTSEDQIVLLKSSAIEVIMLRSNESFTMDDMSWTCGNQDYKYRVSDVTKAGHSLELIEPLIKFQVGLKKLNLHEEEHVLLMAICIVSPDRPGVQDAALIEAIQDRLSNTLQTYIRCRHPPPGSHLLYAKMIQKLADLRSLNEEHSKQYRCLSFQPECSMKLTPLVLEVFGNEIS
# UniProt Q96RI1: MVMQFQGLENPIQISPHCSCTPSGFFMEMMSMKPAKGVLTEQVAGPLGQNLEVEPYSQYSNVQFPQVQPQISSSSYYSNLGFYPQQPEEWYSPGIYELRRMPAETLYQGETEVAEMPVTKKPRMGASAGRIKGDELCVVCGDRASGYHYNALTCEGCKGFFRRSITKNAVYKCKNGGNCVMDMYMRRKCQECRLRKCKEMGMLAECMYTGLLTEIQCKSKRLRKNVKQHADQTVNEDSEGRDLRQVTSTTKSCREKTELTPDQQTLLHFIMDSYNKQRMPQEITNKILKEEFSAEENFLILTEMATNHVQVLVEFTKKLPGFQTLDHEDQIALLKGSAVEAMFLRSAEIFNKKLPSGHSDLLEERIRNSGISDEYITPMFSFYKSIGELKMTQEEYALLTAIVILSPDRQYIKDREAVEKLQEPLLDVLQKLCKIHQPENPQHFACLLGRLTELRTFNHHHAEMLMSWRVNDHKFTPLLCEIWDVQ
# UniProt P62508: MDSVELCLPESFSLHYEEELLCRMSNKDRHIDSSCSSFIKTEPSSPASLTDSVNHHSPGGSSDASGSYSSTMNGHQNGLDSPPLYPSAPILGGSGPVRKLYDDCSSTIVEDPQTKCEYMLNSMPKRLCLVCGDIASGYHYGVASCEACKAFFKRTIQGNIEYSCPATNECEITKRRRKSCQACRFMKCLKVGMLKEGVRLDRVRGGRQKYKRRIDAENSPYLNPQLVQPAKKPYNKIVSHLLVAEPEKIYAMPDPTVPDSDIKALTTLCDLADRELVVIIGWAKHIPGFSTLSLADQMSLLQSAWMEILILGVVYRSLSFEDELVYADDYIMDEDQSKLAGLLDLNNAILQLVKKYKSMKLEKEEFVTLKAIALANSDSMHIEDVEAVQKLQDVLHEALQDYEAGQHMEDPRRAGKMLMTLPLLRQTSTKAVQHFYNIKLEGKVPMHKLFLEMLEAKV
# UniProt P10275: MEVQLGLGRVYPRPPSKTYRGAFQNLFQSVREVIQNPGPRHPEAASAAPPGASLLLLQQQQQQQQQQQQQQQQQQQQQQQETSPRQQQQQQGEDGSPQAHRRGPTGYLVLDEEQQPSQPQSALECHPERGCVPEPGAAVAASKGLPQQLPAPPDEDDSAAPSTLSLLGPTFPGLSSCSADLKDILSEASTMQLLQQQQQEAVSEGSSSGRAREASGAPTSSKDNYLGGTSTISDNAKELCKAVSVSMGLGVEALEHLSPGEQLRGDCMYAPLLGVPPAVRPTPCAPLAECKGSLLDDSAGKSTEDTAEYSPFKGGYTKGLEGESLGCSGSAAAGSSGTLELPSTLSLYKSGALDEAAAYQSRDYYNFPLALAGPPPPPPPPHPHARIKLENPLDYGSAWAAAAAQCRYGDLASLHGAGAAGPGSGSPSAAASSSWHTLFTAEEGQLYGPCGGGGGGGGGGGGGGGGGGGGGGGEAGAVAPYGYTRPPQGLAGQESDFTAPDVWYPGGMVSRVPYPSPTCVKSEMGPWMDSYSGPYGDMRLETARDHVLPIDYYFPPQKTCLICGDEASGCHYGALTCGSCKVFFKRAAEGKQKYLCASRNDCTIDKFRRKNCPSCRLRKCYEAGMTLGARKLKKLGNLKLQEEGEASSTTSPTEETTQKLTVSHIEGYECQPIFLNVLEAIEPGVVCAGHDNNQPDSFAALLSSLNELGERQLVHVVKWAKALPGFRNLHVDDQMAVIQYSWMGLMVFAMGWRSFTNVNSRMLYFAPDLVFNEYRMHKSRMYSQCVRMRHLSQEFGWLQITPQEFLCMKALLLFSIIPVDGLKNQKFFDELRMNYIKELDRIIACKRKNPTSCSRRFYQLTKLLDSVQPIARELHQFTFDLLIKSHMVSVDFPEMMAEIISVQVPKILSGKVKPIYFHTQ
# This list was built around the results that the source calls inconclusive (neither active nor inactive); the mix of calls is not that of the screen. For some of these results: A potency beside an inconclusive call is a rough fit, not a confirmed value. Active and inactive are the calls of the source. The calls were made as follows: active = hit-call score of the fitted dose curve at least 0.9, where 1 is the maximum; inconclusive = response in the unintended direction; inactive = score below 0.9.
# Legend:
# [1] = ATG_M_06_TRANS: Attagene TRANS-FACTORIAL HepG2 Assay for M06 Transcription Factor (Internal Marker) (AID 2282983); details: HepG2 Attagene TRANS M06 internal marker reporter;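 as to AC50: potency for rise in reporter mRNA above DMSO baseline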
# Summary of the method: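 mRNA levels of a reporter transcript, quantified as FAM fluorescence on capillary electrophoresis, served as readout. HepG2 cells expressing exogenous GAL4-chimera reporter constructs were exposed for 24 h. Gain of signal over DMSO was evaluated.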
# [2] = ATG_M_32_TRANS: Attagene TRANS-FACTORIAL HepG2 Assay for M32 Transcription Factor (Internal Marker) (AID 2282984); details: HepG2 Attagene TRANS M32 internal marker reporter;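 as to outcome: transcript level of a background control reporter unit measured by RT-PCR and capillary electrophoresis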
# Summary of the method: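 Internal-marker readout from a multiplexed transcription reporter panel. HepG2 cells were transfected with GAL4-UAS reporter units, treated 24 hours, and reporter transcript levels determined by fluorescence after RT-PCR and capillary separation.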
# [3] = molecular target: Nuclear receptor subfamily 1 group I member 2 (Homo sapiens) (UniProt O75469); assay: ATG_PXR_TRANS: Attagene TRANS-FACTORIAL HepG2 Assay for human Pregnane X Receptor (PXR) (AID 2283008)
# Summary of the method: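 Transient HepG2 transfectants carrying multiplexed reporter transcription units; PXR activity read through a Gal4 chimera. 24 h exposure. RT-PCR/CE fluorescence; upward curve fit referenced to DMSO.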
# [4] = ACEA_ER_AUC_viability: ACEA Biosciences xCELLigence Real-Time Cell Analysis on Estrogen Receptor Agonism for Viability (AID 2283782);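 also: hit means loss of impedance signal meaning reduced cell growth or viability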
# Summary of the method: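 Read-out: real-time electrical impedance (RT-CES) area under curve, loss of signal taken as reduced viability, normalized to DMSO baseline. T-47D cells, charcoal-stripped serum medium, compounds up to 100 uM final, continuous exposure, 80 h.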
# [5] = molecular target: Retinoic acid receptor RXR-alpha (Homo sapiens) (UniProt P19793); assay: ATG_RXRa_TRANS: Attagene TRANS-FACTORIAL HepG2 Assay for human Retinoid X Receptor alpha (RXRa) (AID 2283012)
# Summary of the method: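 TRANS format reporting activity of exogenous RXRa-Gal4 chimera in transiently transfected HepG2, 24 h exposure. Reporter transcripts quantified by RT-PCR with capillary electrophoresis, with gain of signal scored relative to DMSO.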
# [6] = ATG_XTT_Cytotoxicity: Cytotoxicity Assessment in the Attagene TRANS-FACTORIAL HepG2 Assay (AID 2283584);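 as to AC50: XTT signal for cell number as viability in transfected HepG2 cells; cells exposed to compound for 24 h before reading; active means loss of viability signal versus DMSO baseline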
# Summary of the method: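 HepG2 cells transiently transfected with GAL4-UAS multiple reporter units, dosed 24 h; cytotoxicity read by XTT as loss of signal versus DMSO baseline.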
# [7] = molecular target: Cellular tumor antigen p53 (Homo sapiens) (UniProt P04637); assay: TOX21_p53_BLA_p2_ratio: Tox21 HCT-116 p53 Agonism Beta-lactamase Assay, Ratio, Phase 2 (AID 2283592)
# Summary of the method: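 First, HCT116 reporter cells settle for 5 h at 37C. Next, DMSO compound solutions are pinned in (217-fold dilution) and left 16 h. Finally, CCF4-AM substrate is loaded 2 h at room temperature and the 460/530 nm ratio read.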
# [8] = molecular target: Cellular tumor antigen p53 (Homo sapiens) (UniProt P04637); assay: TOX21_p53_BLA_p5_ratio: Tox21 HCT-116 p53 Agonism Beta-lactamase Assay, Ratio, Phase 5 (AID 2283599)
# Summary of the method: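 HCT-116 p53-bla cells (4000/well) plated 5 h, dosed with compound (217-fold DMSO dilution) for 16 h at 37 C; CCF4-AM substrate 2 h at room temperature. Activity is the 460/530 nm emission ratio (405 nm excitation), fitted in gain-of-signal direction versus DMSO.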
# [9] = molecular target: human Peroxisome Proliferator-activated Receptor delta (PPARd), PPARD (gene 5467) (UniProt Q03181); assay: ATG_PPARd_TRANS: Attagene TRANS-FACTORIAL HepG2 Assay for human Peroxisome Proliferator-activated Receptor delta (PPARd) (AID 2283002)
# Summary of the method: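 HepG2 cells transiently transfected with GAL4-UAS multiplexed reporter units driven by exogenous chimeric NR-GAL4 proteins; 24 h compound exposure. Reporter mRNA measured by RT-PCR, 6-FAM primer extension, HpaI digestion and capillary electrophoresis; gain of signal fitted relative to DMSO.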
# [10] = molecular target: human Vitamin D Receptor (VDR), VDR (gene 7421) (UniProt P11473); assay: ATG_VDR_TRANS: Attagene TRANS-FACTORIAL HepG2 Assay for human Vitamin D Receptor (VDR) (AID 2283022)
# Summary of the method: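 HepG2 cells were transiently transfected with GAL4-UAS reporter units and a chimeric VDR-Gal4 construct, then dosed for 24 hours. Reporter mRNA was quantified by RT-PCR, fluorescent labeling, HpaI digestion and capillary electrophoresis; gain of signal analysed vs DMSO.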
# [11] = molecular target: Retinoic acid receptor RXR-alpha (Homo sapiens) (UniProt P19793); assay: OT_NURR1_NURR1RXRa_0480: Odyssey Thera (OT) 8-hour HEK293T Protein Complementation Assay for Nurr1/retinoid X receptor (RXR) (AID 2283385)
# Summary of the method: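 Interaction of Nurr1 with RXRα read as reconstituted reporter fluorescence in a HEK293T fragment-complementation system, 8 h post-treatment; increase over DMSO baseline analysed.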
# [12] = molecular target: Retinoic acid receptor RXR-alpha (Homo sapiens) (UniProt P19793); assay: OT_NURR1_NURR1RXRa_1440: Odyssey Thera (OT) 24-hour HEK293T Protein Complementation Assay for Nurr1/retinoid X receptor (RXR) (AID 2283386)
# Summary of the method: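 Gain in fluorescence, fitted relative to DMSO, reflects Nurr1–RXRα association in HEK293T cells after 24 h dosing. Bait and prey are each linked to a reporter-protein fragment that reassembles on interaction.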
# [13] = molecular target: Bile acid receptor (Homo sapiens) (UniProt Q96RI1); assay: ATG_FXR_TRANS: Attagene TRANS-FACTORIAL HepG2 Assay for Farnesoid X Receptor (FXR) (AID 2282979); details: HepG2 Attagene TRANS FXR-GAL4 reporter transcription;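 also: hits raise reporter mRNA above DMSO so AC50 marks FXR activation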
# Summary of the method: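 HepG2 cells were transiently transfected with GAL4-UAS reporters driven by chimeric NR-Gal4 proteins and dosed for 24 h. Reporter mRNA was quantified by RT-PCR, fluorescent labelling, HpaI digestion and capillary electrophoresis, with gain of signal scored versus DMSO.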
# [14] = molecular target: Cellular tumor antigen p53 (Homo sapiens) (UniProt P04637); assay: TOX21_p53_BLA_p3_ratio: Tox21 HCT-116 p53 Agonism Beta-lactamase Assay, Ratio, Phase 3 (AID 2283596)
# Summary of the method: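 Cells were seeded at 4000/well, rested 5 h at 37C, then dosed with DMSO compound solutions (217-fold dilution) for 16 h. CCF4-AM substrate was loaded for 2 h at room temperature, and the 460/530 nm emission ratio was fitted for gain of signal versus DMSO.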
# [15] = TOX21_p53_BLA_p5_viability: Viability Assessment in the Tox21 HCT-116 p53 Agonism Beta-lactamase Assay, Phase 5 (AID 2283600)
# Summary of the method: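 Decreased CellTiter-Glo luminescence denotes lost viability. Exposure: 16 h at 37C, 5% CO2, with compounds from DMSO stocks diluted 217-fold in wells of 4000 cells.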
# [16] = molecular target: Cellular tumor antigen p53 (Homo sapiens) (UniProt P04637); assay: TOX21_p53_BLA_p4_ratio: Tox21 HCT-116 p53 Agonism Beta-lactamase Assay, Ratio, Phase 4 (AID 2283601)
# Summary of the method: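 HCT-116 p53 beta-lactamase reporter cells (4000/well) preincubated 5 h, then compound (217-fold dilution of DMSO stock) for 16 h at 37C. CCF4-AM substrate added 2 h at room temperature; 460/530 nm emission ratio fitted upward versus DMSO.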
# [17] = molecular target: Estrogen-related receptor gamma (Homo sapiens) (UniProt P62508); assay: ATG_ERRg_TRANS: Attagene TRANS-FACTORIAL HepG2 Assay for human Estrogen-Related Receptor gamma (ERRg) (AID 2282977); details: HepG2 Attagene TRANS reporter, ERRg transactivation;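 also: hits increase reporter signal over DMSO so potencies reflect activators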
# Summary of the method: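 Exogenous NR-Gal4 chimera activity measured as reporter transcript induction after 24 h in transiently transfected HepG2 cells. RNA reverse-transcribed, PCR-amplified, 6-FAM-labelled and resolved by capillary electrophoresis; increase over DMSO baseline.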
# [18] = molecular target: Androgen receptor (Homo sapiens) (UniProt P10275); assay: ATG_AR_TRANS: Attagene TRANS-FACTORIAL HepG2 Assay for human Androgen Receptor (AR) (AID 2282973); details: HepG2 Attagene TRANS-FACTORIAL AR reporter transcription
# Summary of the method: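 HepG2 cells transiently transfected with AR-Gal4 chimera and GAL4-UAS reporter units; chemical exposure 24 h. Reporter mRNA quantified by RT-PCR with fluorescent labelling and capillary electrophoresis; gain-of-signal fitted against DMSO.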
compound,measurement,setting,value
CC(=O)CCC(=O)O,AC50,[1],inconclusive: 48.4 µM
same,outcome,[2],inactive
same,outcome,[3],inactive
same,outcome,[4],inactive
COc1ccc(OC)c(OC)c1,outcome,[2],inactive
same,AC50,[7],inconclusive: 46.1 µM
same,outcome,[15],inactive
CCCCCC(=O)OCC,outcome,[13],inactive
same,AC50,[1],inconclusive: 0.36 µM
same,AC50,[3],inconclusive: 24 µM
same,AC50,[10],inconclusive: 24.9 µM
same,outcome,[12],inactive
same,AC50,[7],inconclusive: 46.1 µM
same,AC50,[14],inconclusive: 46.1 µM
same,AC50,[15],inconclusive: 46.1 µM
same,AC50,[16],inconclusive: 46.1 µM
same,outcome,[4],inactive
CC(=O)O[C@H](CC(=O)[O-])C[N+](C)(C)C,AC50,[2],inconclusive: 26.3 µM
same,AC50,[3],inconclusive: 26.9 µM
same,AC50,[6],inconclusive: 100 µM
same,outcome,[7],inactive
same,AC50,[8],inconclusive: 46.1 µM
same,AC50,[16],inconclusive: 46.1 µM
CCCCNc1ccc(NCCCC)c2c1C(=O)c1ccccc1C2=O,outcome,[1],inactive
same,AC50,[9],inconclusive: 42.9 µM
same,AC50,[5],inconclusive: 0.464 µM
CCCO,AC50,[9],inconclusive: 0.0364 µM
same,AC50,[5],inconclusive: 26.1 µM
same,outcome,[11],inactive
same,outcome,[14],inactive
same,outcome,[8],inactive
same,AC50,[16],inconclusive: 46.1 µM
same,AC50,[4],inconclusive: 50 µM
CCCCCCCCCCCCCC(=O)OCC,outcome,[1],inactive
same,AC50,[10],inconclusive: 100 µM
same,outcome,[15],inactive
same,AC50,[16],inconclusive: 46.1 µM
CC(C)CCOC(=O)CC(C)C,outcome,[13],inactive
same,AC50,[1],inconclusive: 100 µM
same,AC50,[9],inconclusive: 4.67 µM
same,outcome,[3],inactive
same,outcome,[10],inactive
same,AC50,[7],inconclusive: 79.6 µM
same,AC50,[15],inconclusive: 74.4 µM
CCCCCCCOC(C)=O,outcome,[3],inactive
same,outcome,[6],inactive
same,AC50,[7],inconclusive: 46.1 µM
same,AC50,[14],inconclusive: 46.1 µM
same,AC50,[8],inconclusive: 46.1 µM
same,AC50,[15],inconclusive: 46.1 µM
same,AC50,[4],inconclusive: 10.2 µM
CCCCCCCCCCCCCc1ccccc1,AC50,[10],inconclusive: 0.0792 µM
same,outcome,[4],inactive
OCCC(F)(F)C(F)(F)C(F)(F)C(F)(F)F,outcome,[18],inactive
same,AC50,[17],inconclusive: 150 µM
same,outcome,[13],inactive
same,AC50,[2],inconclusive: 150 µM
same,AC50,[9],inconclusive: 150 µM
same,outcome,[10],inactive
CCCCCCCC(=O)OCCCCCC,outcome,[18],inactive
same,AC50,[17],inconclusive: 181 µM
same,AC50,[13],inconclusive: 100 µM
same,AC50,[14],inconclusive: 46.1 µM
same,outcome,[16],inactive
same,outcome,[4],inactive

# For convenience, some entries already given:
compound,measurement,setting,value
CCCCCCCCCCCCCC(=O)OCC,outcome,[1],inactive
same,AC50,[10],inconclusive: 100 µM
same,outcome,[15],inactive
same,AC50,[16],inconclusive: 46.1 µM
